Results as given in the supplement of paper PMC12067093, “Discovery and optimisation of a covalent ligand for TRIM25 and its application to targeted protein ubiquitination” (Chemical Science, 2025).
The list shows a part of the results.

The chains behind the UniProt entries cited, without tags or fusion partners. Where a name states a change or a piece, a line headed by the entry shows the natural chain unless it says otherwise.
UniProt Q9P2I0: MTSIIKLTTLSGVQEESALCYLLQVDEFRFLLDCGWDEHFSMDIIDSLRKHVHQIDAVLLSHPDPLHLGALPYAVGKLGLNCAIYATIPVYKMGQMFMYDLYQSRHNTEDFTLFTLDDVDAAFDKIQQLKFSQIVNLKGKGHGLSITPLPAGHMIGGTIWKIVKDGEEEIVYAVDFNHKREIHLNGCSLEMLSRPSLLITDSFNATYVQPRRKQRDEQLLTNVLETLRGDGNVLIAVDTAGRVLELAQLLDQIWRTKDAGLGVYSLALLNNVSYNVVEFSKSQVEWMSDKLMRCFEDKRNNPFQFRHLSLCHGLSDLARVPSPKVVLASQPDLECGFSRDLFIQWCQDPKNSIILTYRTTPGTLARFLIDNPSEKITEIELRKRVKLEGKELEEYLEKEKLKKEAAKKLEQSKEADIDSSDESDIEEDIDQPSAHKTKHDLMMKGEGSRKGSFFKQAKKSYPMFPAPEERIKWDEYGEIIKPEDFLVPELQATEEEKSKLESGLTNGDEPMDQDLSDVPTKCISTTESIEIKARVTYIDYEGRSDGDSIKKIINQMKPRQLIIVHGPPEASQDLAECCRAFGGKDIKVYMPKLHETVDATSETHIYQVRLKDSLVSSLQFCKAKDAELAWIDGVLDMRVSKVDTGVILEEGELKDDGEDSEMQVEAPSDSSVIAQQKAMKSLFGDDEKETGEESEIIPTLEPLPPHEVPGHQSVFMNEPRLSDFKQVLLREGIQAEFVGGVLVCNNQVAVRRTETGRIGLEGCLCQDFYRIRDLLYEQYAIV
UniProt Q68DQ2: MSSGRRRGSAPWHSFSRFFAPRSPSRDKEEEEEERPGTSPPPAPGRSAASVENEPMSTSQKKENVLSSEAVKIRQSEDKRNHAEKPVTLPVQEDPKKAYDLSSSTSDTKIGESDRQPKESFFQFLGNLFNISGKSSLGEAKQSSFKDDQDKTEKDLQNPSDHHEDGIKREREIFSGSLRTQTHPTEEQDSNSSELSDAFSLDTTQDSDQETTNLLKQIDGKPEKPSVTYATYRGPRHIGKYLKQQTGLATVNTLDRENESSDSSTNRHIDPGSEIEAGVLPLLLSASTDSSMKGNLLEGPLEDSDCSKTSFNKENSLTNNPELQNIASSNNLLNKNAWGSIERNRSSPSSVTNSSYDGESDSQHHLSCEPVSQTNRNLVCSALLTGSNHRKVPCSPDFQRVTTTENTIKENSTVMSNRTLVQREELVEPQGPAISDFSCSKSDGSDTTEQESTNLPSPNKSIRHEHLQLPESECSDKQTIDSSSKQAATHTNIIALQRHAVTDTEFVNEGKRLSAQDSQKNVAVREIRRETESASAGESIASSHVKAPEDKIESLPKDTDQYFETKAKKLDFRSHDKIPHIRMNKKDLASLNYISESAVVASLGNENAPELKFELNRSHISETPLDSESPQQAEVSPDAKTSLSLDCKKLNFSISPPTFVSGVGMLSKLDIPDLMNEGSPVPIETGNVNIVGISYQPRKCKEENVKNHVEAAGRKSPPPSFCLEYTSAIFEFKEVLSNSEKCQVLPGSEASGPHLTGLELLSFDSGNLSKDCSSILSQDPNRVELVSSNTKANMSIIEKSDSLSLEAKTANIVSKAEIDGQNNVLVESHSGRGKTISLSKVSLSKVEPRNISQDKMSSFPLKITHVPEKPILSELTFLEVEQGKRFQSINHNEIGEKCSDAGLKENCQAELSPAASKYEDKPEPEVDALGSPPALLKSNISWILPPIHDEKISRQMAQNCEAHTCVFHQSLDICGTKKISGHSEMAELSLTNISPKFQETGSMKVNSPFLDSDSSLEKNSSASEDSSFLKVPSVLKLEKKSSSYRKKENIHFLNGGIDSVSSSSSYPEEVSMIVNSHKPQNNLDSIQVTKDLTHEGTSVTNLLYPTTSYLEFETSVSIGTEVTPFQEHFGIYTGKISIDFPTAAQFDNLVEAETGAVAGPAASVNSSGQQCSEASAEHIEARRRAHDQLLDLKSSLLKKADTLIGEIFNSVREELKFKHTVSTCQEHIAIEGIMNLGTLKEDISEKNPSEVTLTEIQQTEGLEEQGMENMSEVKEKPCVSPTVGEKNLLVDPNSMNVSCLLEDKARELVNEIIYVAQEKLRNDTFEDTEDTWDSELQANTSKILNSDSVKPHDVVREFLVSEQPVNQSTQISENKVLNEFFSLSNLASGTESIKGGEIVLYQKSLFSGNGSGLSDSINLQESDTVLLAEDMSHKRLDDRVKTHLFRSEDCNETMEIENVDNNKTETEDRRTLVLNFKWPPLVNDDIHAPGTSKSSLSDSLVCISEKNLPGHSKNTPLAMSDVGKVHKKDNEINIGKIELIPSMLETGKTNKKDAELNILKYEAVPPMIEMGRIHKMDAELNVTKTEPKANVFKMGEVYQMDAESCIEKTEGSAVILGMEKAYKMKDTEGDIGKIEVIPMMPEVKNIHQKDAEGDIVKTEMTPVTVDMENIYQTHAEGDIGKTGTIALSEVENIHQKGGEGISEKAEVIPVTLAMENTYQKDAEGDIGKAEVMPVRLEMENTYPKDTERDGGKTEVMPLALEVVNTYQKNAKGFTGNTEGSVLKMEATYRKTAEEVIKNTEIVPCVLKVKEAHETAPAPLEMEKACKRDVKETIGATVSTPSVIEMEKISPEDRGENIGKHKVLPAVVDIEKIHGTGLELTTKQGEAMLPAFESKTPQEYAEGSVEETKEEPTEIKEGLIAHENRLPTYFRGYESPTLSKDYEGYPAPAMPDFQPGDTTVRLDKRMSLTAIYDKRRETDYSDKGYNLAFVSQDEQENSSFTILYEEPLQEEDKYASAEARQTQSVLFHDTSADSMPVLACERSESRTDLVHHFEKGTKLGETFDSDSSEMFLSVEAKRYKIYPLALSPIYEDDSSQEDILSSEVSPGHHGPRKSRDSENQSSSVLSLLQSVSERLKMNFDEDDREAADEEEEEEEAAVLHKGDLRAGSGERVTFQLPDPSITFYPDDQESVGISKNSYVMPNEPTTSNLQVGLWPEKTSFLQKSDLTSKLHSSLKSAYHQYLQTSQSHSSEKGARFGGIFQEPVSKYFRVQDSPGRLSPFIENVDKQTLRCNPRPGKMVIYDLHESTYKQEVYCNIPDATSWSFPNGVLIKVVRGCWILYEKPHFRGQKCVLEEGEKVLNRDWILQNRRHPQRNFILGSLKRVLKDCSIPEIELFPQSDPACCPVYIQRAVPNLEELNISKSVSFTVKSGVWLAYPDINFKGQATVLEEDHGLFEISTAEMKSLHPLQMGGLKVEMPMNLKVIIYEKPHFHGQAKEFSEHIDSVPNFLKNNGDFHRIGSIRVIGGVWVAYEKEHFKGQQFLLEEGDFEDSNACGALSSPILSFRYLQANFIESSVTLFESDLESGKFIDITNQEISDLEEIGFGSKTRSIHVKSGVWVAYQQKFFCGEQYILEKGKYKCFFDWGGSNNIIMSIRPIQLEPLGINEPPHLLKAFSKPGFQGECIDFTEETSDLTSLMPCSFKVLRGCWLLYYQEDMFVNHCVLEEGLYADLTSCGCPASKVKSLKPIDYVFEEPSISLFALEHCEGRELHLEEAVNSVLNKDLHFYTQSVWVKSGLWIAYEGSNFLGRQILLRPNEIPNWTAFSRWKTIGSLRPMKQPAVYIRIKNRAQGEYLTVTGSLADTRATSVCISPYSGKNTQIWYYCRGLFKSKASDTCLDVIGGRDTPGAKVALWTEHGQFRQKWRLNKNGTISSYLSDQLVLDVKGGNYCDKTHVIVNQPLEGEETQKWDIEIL
UniProt P21291: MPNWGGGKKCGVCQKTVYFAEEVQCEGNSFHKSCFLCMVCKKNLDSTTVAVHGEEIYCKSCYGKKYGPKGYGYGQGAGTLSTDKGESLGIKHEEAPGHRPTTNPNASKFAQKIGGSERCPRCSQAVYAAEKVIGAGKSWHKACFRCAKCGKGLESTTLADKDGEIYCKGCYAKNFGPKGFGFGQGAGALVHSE
UniProt P49711: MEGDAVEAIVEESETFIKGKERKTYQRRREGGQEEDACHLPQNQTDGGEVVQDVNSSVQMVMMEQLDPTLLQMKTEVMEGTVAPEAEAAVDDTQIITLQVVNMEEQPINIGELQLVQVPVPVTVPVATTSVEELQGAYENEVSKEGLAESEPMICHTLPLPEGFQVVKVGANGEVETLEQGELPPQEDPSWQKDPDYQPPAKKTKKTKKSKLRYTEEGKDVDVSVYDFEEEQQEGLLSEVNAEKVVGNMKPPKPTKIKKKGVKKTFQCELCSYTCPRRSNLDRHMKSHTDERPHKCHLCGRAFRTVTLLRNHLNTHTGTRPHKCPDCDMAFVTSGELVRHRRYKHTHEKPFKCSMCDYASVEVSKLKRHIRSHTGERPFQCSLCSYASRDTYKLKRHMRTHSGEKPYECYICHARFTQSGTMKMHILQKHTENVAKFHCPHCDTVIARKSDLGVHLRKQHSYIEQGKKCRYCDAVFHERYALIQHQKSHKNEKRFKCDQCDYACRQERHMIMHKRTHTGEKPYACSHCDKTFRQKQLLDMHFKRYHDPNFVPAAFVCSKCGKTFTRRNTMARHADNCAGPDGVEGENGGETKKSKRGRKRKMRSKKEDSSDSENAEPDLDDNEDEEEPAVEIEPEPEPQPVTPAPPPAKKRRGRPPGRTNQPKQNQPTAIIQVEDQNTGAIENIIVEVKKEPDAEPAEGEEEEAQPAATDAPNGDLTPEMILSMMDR
UniProt P17812: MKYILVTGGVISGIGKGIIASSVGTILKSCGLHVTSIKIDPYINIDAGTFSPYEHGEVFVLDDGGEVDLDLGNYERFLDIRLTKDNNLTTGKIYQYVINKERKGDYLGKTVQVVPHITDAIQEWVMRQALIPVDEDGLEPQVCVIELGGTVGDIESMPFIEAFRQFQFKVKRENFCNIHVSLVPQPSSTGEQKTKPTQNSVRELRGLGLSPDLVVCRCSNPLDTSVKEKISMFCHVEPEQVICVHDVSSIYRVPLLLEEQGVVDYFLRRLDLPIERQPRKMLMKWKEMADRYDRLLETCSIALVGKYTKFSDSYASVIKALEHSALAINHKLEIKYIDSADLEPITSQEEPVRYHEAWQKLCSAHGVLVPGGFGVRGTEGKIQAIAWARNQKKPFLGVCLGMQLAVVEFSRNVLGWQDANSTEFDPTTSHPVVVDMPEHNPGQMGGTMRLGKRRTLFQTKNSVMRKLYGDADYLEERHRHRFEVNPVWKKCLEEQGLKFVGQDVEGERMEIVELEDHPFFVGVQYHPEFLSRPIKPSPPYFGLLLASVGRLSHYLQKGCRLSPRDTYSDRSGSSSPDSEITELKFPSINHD
UniProt P26232: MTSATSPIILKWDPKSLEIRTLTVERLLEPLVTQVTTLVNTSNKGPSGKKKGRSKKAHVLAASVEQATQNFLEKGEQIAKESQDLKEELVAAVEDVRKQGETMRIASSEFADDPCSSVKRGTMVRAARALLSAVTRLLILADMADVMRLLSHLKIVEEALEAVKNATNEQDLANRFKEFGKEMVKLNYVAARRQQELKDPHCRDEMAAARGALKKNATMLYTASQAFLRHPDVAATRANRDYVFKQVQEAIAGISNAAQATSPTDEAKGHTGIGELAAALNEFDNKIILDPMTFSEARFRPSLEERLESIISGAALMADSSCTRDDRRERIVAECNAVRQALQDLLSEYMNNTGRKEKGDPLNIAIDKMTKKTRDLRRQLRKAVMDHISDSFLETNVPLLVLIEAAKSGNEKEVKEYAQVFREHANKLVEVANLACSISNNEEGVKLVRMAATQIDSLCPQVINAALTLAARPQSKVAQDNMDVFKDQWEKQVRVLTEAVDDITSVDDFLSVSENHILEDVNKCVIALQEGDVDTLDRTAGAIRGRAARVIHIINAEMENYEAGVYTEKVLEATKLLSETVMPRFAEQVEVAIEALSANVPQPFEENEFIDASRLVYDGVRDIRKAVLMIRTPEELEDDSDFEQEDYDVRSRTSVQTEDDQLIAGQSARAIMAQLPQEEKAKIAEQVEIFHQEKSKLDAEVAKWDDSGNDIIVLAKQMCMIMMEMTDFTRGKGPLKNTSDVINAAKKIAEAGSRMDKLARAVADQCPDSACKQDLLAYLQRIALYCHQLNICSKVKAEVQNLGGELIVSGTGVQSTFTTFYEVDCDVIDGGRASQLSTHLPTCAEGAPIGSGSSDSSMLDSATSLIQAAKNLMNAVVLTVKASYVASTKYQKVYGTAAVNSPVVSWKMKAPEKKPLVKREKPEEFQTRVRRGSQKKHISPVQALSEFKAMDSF

Compound: Cc1cc(ccc1-c1ccccc1)C(=O)N1CCCN(CC1)C(=O)CCl [compound 10]
Test: probe-labelled cysteine peptide fold change vs DMSO (competition) (log2 fold change); higher = less target engagement (more negative = stronger competition)
Settings: THP-1, incubation time: 4 h
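Further: competitive profiling in live THP-1 cells: cysteine peptides tagged with an iodoacetamide desthiobiotin (IA-DTB) probe, intensity after compound treatment relative to DMSO-treated cells.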

CPSF2_Q9P2I0_20_LTTLSGVQEESALCYLLQVDEFR (UniProt Q9P2I0)
probe-labelled cysteine peptide fold change (10 µM): 0.265
probe-labelled cysteine peptide fold change (50 µM): 0.409

CRYBG3_Q68DQ2_439_EELVEPQGPAISDFSCSK (UniProt Q68DQ2)
probe-labelled cysteine peptide fold change (10 µM): -0.427
probe-labelled cysteine peptide fold change (50 µM): -0.189

CSDE1_O75534_53_LFFHCSQYNGNLQDLK (UniProt O75534)
probe-labelled cysteine peptide fold change (10 µM): 0.259
probe-labelled cysteine peptide fold change (50 µM): 0.096

CTNNBL1_Q8WYA6_320_RHNPSTAEEQEMMENLFDSLCSCLMLSSNR (UniProt Q8WYA6)
probe-labelled cysteine peptide fold change (10 µM): 0.342
probe-labelled cysteine peptide fold change (50 µM): -0.13

CPT1A_P50416_742_FSCPETDSHR (UniProt P50416)
probe-labelled cysteine peptide fold change (10 µM): -0.133
probe-labelled cysteine peptide fold change (50 µM): -0.0423

CSRP1_P21291_34+37_SCFLCMVCK (UniProt P21291)
probe-labelled cysteine peptide fold change (10 µM): -0.0813
probe-labelled cysteine peptide fold change (50 µM): -0.307

CTCF_P49711_577_HADNCAGPDGVEGENGGETK (UniProt P49711)
probe-labelled cysteine peptide fold change (10 µM): -0.136
probe-labelled cysteine peptide fold change (50 µM): 0.353

CTPS1_P17812_362_LCSAHGVLVPGGFGVR (UniProt P17812)
probe-labelled cysteine peptide fold change (10 µM): 0.0315
probe-labelled cysteine peptide fold change (50 µM): 0.0558

CTNNAL1_Q9UBT7_104_EEINIACIEAK (UniProt Q9UBT7)
probe-labelled cysteine peptide fold change (10 µM): 0.116
probe-labelled cysteine peptide fold change (50 µM): 0.384

CTNNA2_P26232_792_IALYCHQLNICSK (UniProt P26232)
probe-labelled cysteine peptide fold change (10 µM): -0.0537
probe-labelled cysteine peptide fold change (50 µM): -0.0193

CTBP2_P56545_318_DAPNLICTPHTAWYSEQASLEMR (UniProt P56545)
probe-labelled cysteine peptide fold change (10 µM): -0.154
probe-labelled cysteine peptide fold change (50 µM): 0.00764

CTPS2_Q9NRF8_299_ICSIALVGK (UniProt Q9NRF8)
probe-labelled cysteine peptide fold change (10 µM): -0.0254
probe-labelled cysteine peptide fold change (50 µM): 0.193

CPSF3_Q9UKF6_655_TVECEEGSEDDESLREMVELAAQR (UniProt Q9UKF6)
probe-labelled cysteine peptide fold change (10 µM): 0.0335
probe-labelled cysteine peptide fold change (50 µM): 0.103

CORO7_P57737_790_TECDVREVELMR (UniProt P57737)
probe-labelled cysteine peptide fold change (10 µM): -0.178
probe-labelled cysteine peptide fold change (50 µM): -0.995
